Results are given in words; binding and its absence hold for the method and conditions named. In cells and extracts the contact can be indirect. Some results given as binding are weak or reduced against the parent protein; the word gives no strength. For part of these data: Tags and fused reporters may be left off the sequences shown.
T1: EMC7*-FLAG (human (cDNA isolated from HEK 293 T cells)) (UniProt Q9NPA0)
T1 sequence: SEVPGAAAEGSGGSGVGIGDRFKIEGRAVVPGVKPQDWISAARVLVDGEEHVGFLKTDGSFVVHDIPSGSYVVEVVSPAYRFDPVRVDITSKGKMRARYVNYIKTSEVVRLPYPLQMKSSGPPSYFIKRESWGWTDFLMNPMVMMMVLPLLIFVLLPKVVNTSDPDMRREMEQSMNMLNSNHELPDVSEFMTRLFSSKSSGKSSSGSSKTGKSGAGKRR

Sequences of proteins named here, by UniProt entry; tags and fusion partners are left off. A change or cut given only in a name is not applied to a line headed by its entry.
UniProt Q5J8M3: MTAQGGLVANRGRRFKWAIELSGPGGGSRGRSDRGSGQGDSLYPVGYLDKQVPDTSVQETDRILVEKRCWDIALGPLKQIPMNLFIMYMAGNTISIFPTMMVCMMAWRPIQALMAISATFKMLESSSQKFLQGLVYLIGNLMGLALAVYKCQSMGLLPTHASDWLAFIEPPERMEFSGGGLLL
UniProt P51149: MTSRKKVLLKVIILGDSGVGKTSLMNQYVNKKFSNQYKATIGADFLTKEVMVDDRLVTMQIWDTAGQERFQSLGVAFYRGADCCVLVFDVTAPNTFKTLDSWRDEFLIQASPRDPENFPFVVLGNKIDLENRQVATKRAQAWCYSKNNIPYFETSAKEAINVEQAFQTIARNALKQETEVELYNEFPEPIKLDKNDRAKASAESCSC

B1: protrudin (endogenous) (protein, UniProt Q5T4F4 1-411)
chain: MQTSEREGSGPELSPSVMPEAPLESPPFPTKSPAFDLFNLVLSYKRLEIYLEPLKDAGDGVRYLLRWQMPLCSLLTCLGLNVLFLTLNEGAWYSVGALMISVPALLGYLQEVCRARLPDSELMRRKYHSVRQEDLQRGRLSRPEAVAEVKSFLIQLEAFLSRLCCTCEAAYRVLHWENPVVSSQFYGALLGTVCMLYLLPLCWVLTLLNSTLFLGNVEFFRVVSEYRASLQQRMNPKQEEHAFESPPPPDVGGKDGLMDSTPALTPTEDLTPGSVEEAEEAEPDEEFKDAIEETHLVVLEDDEGAPCPAEDELALQDNGFLSKNEVLRSKVSRLTERLRKRYPTNNFGNCTGCSATFSVLKKRRSCSNCGNSFCSRCCSFKVPKSSMGATAPEAQRETVFVCASCNQTLSK

Experiments:
[1] = target: T1, EMC7*-FLAG (human (cDNA isolated from HEK 293 T cells)); test: co-IP; cells transfected with FLAG-tagged constructs (HEK 293 T treated with EMC4 and/or EMC7 siRNA, with EGFP-Rab7 constructs in Figs. 4e and 7b), extract incubated with FLAG antibody-conjugated agarose beads (FLAG M2) for 2 h at 4 °C, immunoblot
[2] = target: EMC4 (endogenous) (human (endogenous in HEK 293 T)) (UniProt Q5J8M3); test: co-IP; extract of untransfected cells (HEK 293 T in Fig. 4b; HNp buffer with 1% DBC or 0.5% NP40) incubated overnight with EMC4 antibody or control IgG, protein A/G agarose beads, immunoblot; both partners endogenous

| Molecule | binding [1] | binding [2] |
| --- | --- | --- |
| EGFP-N125I Rab7 (from UniProt P51149 1-207) | no binding | – |
| EGFP-tagged wild-type Rab7 (from UniProt P51149 1-207) | binds | – |
| B1 | – | no binding |

From paper PMC7048770
